Test results reported in PubChem BioAssay AID485314 (National Center for Advancing Translational Sciences (NCATS), 2010).
Among all 340,000 compounds or so, about 4,500 (1.3%) were called active. The inconclusive results got no clear call from the source; some entries with a clear call stand among them for comparison. Calls follow the shape of the dose curve; as a rule, active = well fitted inhibition curve with a large enough effect; inconclusive = small, poorly fitted or top-dose-only effect, or another doubt; inactive = no such curve, though single readings can be large or run the other way. A potency beside an inconclusive call is a rough fit, not a confirmed value.

Biological target: DNA polymerase beta (Homo sapiens) (UniProt P06746)
Test: qHTS Assay for Inhibitors of DNA Polymerase Beta
Settings: Pol beta primer extension/strand displacement, fluorescence kinetic; activity change, negative = inhibition: at 114 µM (top of the series)
Summary of the method: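 10 nM enzyme + cpd, 15 min RT; start with substrate 50 nM final; read 0 min and after 10 min RT. Corrected, normalized data; 4-parameter Hill curve fit.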
% is scaled to controls: 0 for no effect and ±100 for the full control effect; potency is read from the fitted curve at half-maximal effect.

Activity change, negative = inhibition, inconclusive:
Cc1csc2c(=O)sc(NC(=O)c3ccco3)nc12 -30.4% [inhibitor]
COC(=O)c1ccc(Oc2nc(NC(C)C)nc(NC(C)C)n2)cc1 -37.2% [inhibitor]
O=C(NN1C(=O)/C(=C/C=C/c2ccco2)SC1=S)c1ccncc1 -98.7% [inhibitor]
Cc1ccc(C(C)C)c(OCc2ccc(C(=O)N/N=C/c3ccc(C(=O)O)cc3)cc2)c1 -47.3% [inhibitor]

Activity change, negative = inhibition, inactive:
O=C(N/N=C/c1ccccc1[N+](=O)[O-])c1ccc2nc[nH]c2c1 22.3%
CCOc1ccc(/C=N/NC(=O)c2[nH]ncc2Br)c(O)c1 23.1%
Cc1cccc(-c2nc(CSCC(=O)NCCc3ccc(Cl)cc3)c(C)o2)c1 -1.88%
O=C(CSc1ncc(-c2ccccc2)[nH]1)Nc1cccc(C(F)(F)F)c1 -15.1%
Cc1cc(Cl)ccc1OCC(=O)Nc1c(C(=O)c2ccccc2)oc2ccccc12 19.6%
O=Cc1[nH]c2ccccc2c1N(C(=O)CCl)c1ccccc1 -10.5%
CSc1nc(N)c2ncn([C@@H]3O[C@H](COP(=O)(O)OP(=O)(O)O)[C@H](O)[C@H]3O)c2n1 6.4% [at 57.1 µM]
COC(=O)c1cc(NC(=O)c2sc3ncn(Cc4cccc(F)c4)c(=O)c3c2C)cc(C(=O)OC)c1 -18.8%
CCCN1CCN(C(=O)c2oc3ccccc3c2NC(=O)COc2ccc(OC)cc2)CC1 7.79%
Cc1ccc(N2CC(C(=O)Nc3cccnc3)CC2=O)cc1Cl (stereo unspecified) 38.6%
CC1(C)CC(=O)c2sc(NC(=O)Cc3cccs3)nc2C1 -25.1%
Cc1ccc2c(c1C)NC(=O)CC2c1ccc(Cl)cc1Cl (stereo unspecified) 13.3%
O=C(CC1N=C2c3ccccc3N=C(SCc3cccc(F)c3)N2C1=O)NCc1ccc2c(c1)OCO2 (stereo unspecified) -22.1%
COc1ccc(OCC(=O)Nc2ccccc2C(=O)OCc2cc(=O)n3nc(C)sc3n2)cc1 8.67%
O=C(NCCN1CCCCC1)c1ccc(Cn2c(SCc3cccc(F)c3)nc3cccnc32)cc1 -1.12%
Cc1cccc(OCC(=O)N(Cc2ccccc2)c2ccccn2)c1 11%
CCn1c(=O)c(C(=O)NCc2cccnc2)c(O)c2ccccc21 -11.8%
CC(C)CCn1c(=O)c2sccc2n2c(CCCC(=O)NC3CCC(C)CC3)nnc12 (stereo unspecified) 8.04%
CC(C)c1ccc2oc(-c3ccc(NC(=O)c4cc5ccccc5o4)cc3)nc2c1 -8.73%

Potency, inconclusive:
COC(=O)c1cccc(CSc2nc(-c3ccccc3)c(C#N)c(=O)[nH]2)c1 89.1 µM [inhibitor, single point]
Cc1ccc2cc(S(=O)(=O)NCCCN3CCOCC3)ccc2c1 100 µM [inhibitor, single point]
O=C(CSc1nc(-c2ccc(F)cc2)[nH]c1-c1ccccc1)Nc1ccccc1 39.8 µM [inhibitor, partial curve]
Cc1cc(C)c2c(N)c(C(=O)c3ccccc3Cl)sc2n1 100 µM [inhibitor, single point]
Cc1cccc2sc(N(CCCN(C)C)C(=O)CN3C(=O)c4ccccc4C3=O)nc12 39.8 µM [inhibitor, single point]
COc1cc(/C=N/Nc2ccc(Cl)c(C(=O)O)c2)ccc1OC(=O)c1ccccc1F 89.1 µM [inhibitor, single point]
O=C(O)CCc1ccc(-c2cccs2)n1NC(=O)c1cccs1 35.5 µM [inhibitor, partial curve]
CCOC(=O)COc1ccc(Br)cc1/C=C1\SC(N)=NC1=O 79.4 µM [inhibitor, partial curve, poor fit]
O=C(Nc1ccc(F)cc1)Nc1ccc(Oc2ncnc3cc(Cl)ccc23)nc1 89.1 µM [inhibitor, single point]
COc1ccc(-c2cc(C(C)=O)c(C)n2CCC(=O)Nc2ccc(C(F)(F)F)cc2)cc1 89.1 µM [inhibitor, single point]
O=C(CN1C(=O)C2CC=C(Cl)CC2C1=O)NCc1ccccc1 (stereo unspecified) 89.1 µM [inhibitor, single point]
Cc1c(Cl)cccc1NC(=O)CCN1CCN(CCO)CC1 0.158 µM [inhibitor, full curve, poor fit]
Cc1oc(C)c(C(N)=O)c1C(N)=O 1.58 µM [inhibitor, full curve, poor fit]
O=C(N/N=C/c1c(-c2ccccc2)[nH]c2ccccc12)c1cccnc1 20 µM [inhibitor, full curve, poor fit]
CCC(=O)N/C(=N\OCc1ccc(F)cc1)c1nonc1NC(=O)CC 89.1 µM [inhibitor, single point]
CS(=O)(=O)N(CC(=O)NCc1cccnc1)Cc1ccc(Cl)cc1 89.1 µM [inhibitor, single point]
NC(=O)[C@@H]1CC2(CC(c3cccc(NC(=O)CC(c4ccccc4)c4ccccc4)c3)=NO2)CN1C(=O)COc1ccc(Cl)cc1 (stereo partly specified) 79.4 µM [inhibitor, single point]
CCn1c(SCC(=O)Nc2ccc3c(c2)OCCO3)nc2c(c1=O)SC(C)C2 (stereo unspecified) 5.62 µM [inhibitor, full curve, poor fit]
COc1ccc(NC(=O)CSc2nc3[nH]ncc3c(=O)n2-c2ccccc2C)cc1OC 89.1 µM [inhibitor, single point]
Cc1c(Cl)cccc1NC(=O)CSc1nccn1C 39.8 µM [inhibitor, single point]
CCN(CC)c1ccc2cc(-c3nc4ccccc4[nH]3)c(=O)oc2c1 100 µM [inhibitor, single point]
O=C(Nc1ccccc1C(=O)N1CCCC1)c1ccccc1 0.355 µM [inhibitor, full curve, poor fit]
O=C1CC(/C=C/c2ccco2)=Nc2ccccc2N1 0.1 µM [inhibitor, full curve, poor fit]
O=S(=O)(NCCSc1nnc(-c2ccco2)n1-c1ccccc1)c1ccccc1 89.1 µM [inhibitor, single point]
CCOC(=O)C1(C)NC(c2ccccc2F)C2C(=O)N(c3cccc(C(C)=O)c3)C(=O)C21 (stereo unspecified) 14.1 µM [inhibitor, partial curve]
O=C(O)c1ccc(N/N=C/c2ccc(-c3ccccc3)cc2)cc1 63.1 µM [inhibitor, partial curve, poor fit]
O=c1[nH]nc(SCCS(=O)(=O)c2ccc(F)cc2)n1-c1ccc2c(c1)OCCO2 39.8 µM [inhibitor, partial curve, poor fit]
COc1cccc(-c2ccc(SCC(=O)NC3CCCCC3)nn2)c1 4.47 µM [inhibitor, single point]
O=C(NCc1ccccn1)c1ccc(OC2CCN(Cc3ccc(CO)o3)CC2)cc1 35.5 µM [inhibitor, full curve]
O=C(O)c1ccc(NC(=O)c2cn(-c3ccccc3)nc2-c2ccc(Br)cc2)cc1 89.1 µM [inhibitor, single point]
CCCn1c(SCC(=O)Nc2ccc(Cl)cn2)nnc1C1CC1 7.94 µM [inhibitor, partial curve]
COc1ccc([N+](=O)[O-])cc1NC(=O)c1cc(C)c(C)o1 4.47 µM [inhibitor, full curve]
COC(=O)c1cc(=O)n(Cc2ccco2)c(=Nc2ccc(F)cc2)s1 89.1 µM [inhibitor, single point]
O=C(NCc1ccco1)c1ccccc1Br 39.8 µM [inhibitor, partial curve]
O=C(COC(=O)/C=C/C(=O)OCC(=O)Nc1ccccc1F)Nc1ccccc1F 79.4 µM [inhibitor, single point]
COc1c(N2CCN[C@H](C)C2)c(F)cc2c(=O)c(C(=O)O)cn(C3CC3)c12 89.1 µM [inhibitor, single point]
CCc1cc(SC#N)ccc1N 89.1 µM [inhibitor, single point]

Already shown: an excerpt of the list.
Potency, inconclusive:
COc1ccc(NC(=O)CSc2nc3[nH]ncc3c(=O)n2-c2ccccc2C)cc1OC 89.1 µM [inhibitor, single point]
Cc1c(Cl)cccc1NC(=O)CSc1nccn1C 39.8 µM [inhibitor, single point]

Next part.

Potency, active:
Cc1cc(NS(=O)(=O)c2ccc(NC(=O)C(F)(F)F)cc2)nc(C)n1 56.2 µM
COc1ccc(CCNC(=O)c2nnn(CC(=O)Nc3ccc(C)cc3C)c2N)cc1OC 0.562 µM
Cc1cc(C)cc(CSCC(=O)N/N=C/c2ccc(OCC(=O)NCc3ccco3)cc2)c1 25.1 µM
O=C(Cc1cccs1)NCC1CCCO1 (stereo unspecified) 12.6 µM
CC(C)(C)C1CCc2c(sc3nnn(CCOc4ccccc4)c(=O)c23)C1 (stereo unspecified) 25.1 µM
COc1ccccc1N1CC(C(=O)Nc2ccc(S(=O)(=O)N3CCOCC3)cc2)CC1=O (stereo unspecified) 79.4 µM
Cc1ccc(-c2cc(C(=O)N/N=C/c3ccc(Cl)cc3)n[nH]2)o1 25.1 µM
O=C(O)CCCCCNS(=O)(=O)c1ccc2c3c(cccc13)C(=O)N2 15.8 µM
O=C(CCCCCNC(=O)c1ccccc1)N/N=C/c1ccco1 15.8 µM
O=C(O)c1cc(-c2ccc(/C=C3/SC(=S)N(Cc4ccccc4)C3=O)o2)ccc1Cl 15.8 µM
CC(C)CNC(=O)c1cccc(NC(=O)c2ccc(NC(=O)c3ccco3)cc2)c1 25.1 µM
